Taken from: PubChem BioAssay AID1224828 (NIAID, 2016)

Test: 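Knock-downs that increase or decrease LPS-induced p65 nuclear translocation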 (primary screen)
Cells: mouse RAW264.7 G9 macrophage reporter cells (GFP-p65, Tnf promoter-mCherry)
Knock-down reagent: siRNA pool against mouse genes, 100 nM
Timing: 2 days siRNA transfection, then 40 min LPS before fixation
Challenge: LPS (Salmonella minnesota R595) at 10 ng/ml
Detection: 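Imaged p65 nuclear translocation ratio, normalised to the plate median, converted to robust z-scores and averaged across two replicates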
Reading the numbers: p65 translocation robust z-score: higher = more nuclear NF-kappaB p65 after LPS than the plate median; nuclear/cytoplasmic p65 ratio: higher = more nuclear NF-kappaB p65
Active means: 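Active if robust z is above 3.3 (negative regulators) or below -1.56, the Tlr4 control median (positive regulators); activity score 50 or more; control wells not called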
Calls: active = hit (p65 shift raised or lowered); inactive = no clear change
In all, the deposit lists about 17,000 reagents; below is a part drawn at random. 762 of all reagents (4.5%) count as active. 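Active calls include both raised and lowered p65 entry, mostly lowered; wells with fewer than 50 cells lack a z-score.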 The raw values are shown without normalisation. A number with no mark means an inactive call. Reagents against one gene are numbered here.

The first 5 entries, to show the layout:
no.	target gene	pool no.	p65 translocation robust z-score	nuclear/cytoplasmic p65 ratio, rep 1	nuclear/cytoplasmic p65 ratio, rep 2	low cell count flag
1	Krtap3-3	1	0.45	1.52	1.58	enough cells to score
2	Ankmy2	1	-1.56	1.33	1.49	enough cells to score
3	Champ1	1	-0.04	1.58	1.52	enough cells to score
4	Galnt13	1	-0.07	1.57	1.36	enough cells to score
5	Lsm14a	1		1.32	1.22	fewer than 50 cells per well; well left out of scoring

Results, from the first entry:
no.	target gene	pool no.	p65 translocation robust z-score	nuclear/cytoplasmic p65 ratio, rep 1	nuclear/cytoplasmic p65 ratio, rep 2	low cell count flag
1	Krtap3-3	1	0.45	1.52	1.58	enough cells to score
2	Ankmy2	1	-1.56	1.33	1.49	enough cells to score
3	Champ1	1	-0.04	1.58	1.52	enough cells to score
4	Galnt13	1	-0.07	1.57	1.36	enough cells to score
5	Lsm14a	1		1.32	1.22	fewer than 50 cells per well; well left out of scoring
6	Prr15	1		1.78	1.24	fewer than 50 cells per well; well left out of scoring
7	Ninl	1	-0.23	1.42	1.28	enough cells to score
8	Wnk1	1	0.64	1.74	1.5	enough cells to score
9	Eif2b1	1	-0.06	1.48	1.34	enough cells to score
10	Ttr	1	-0.25	1.47	1.47	enough cells to score
11	Samd8	1		1.41	1.65	fewer than 50 cells per well; well left out of scoring
12	Psg17	1	1.35	1.55	1.25	enough cells to score
13	S100a13	1	-0.42	1.41	1.5	enough cells to score
14	Nifk	1	0.74	1.48	1.49	enough cells to score
15	Ms4a4b	1	-0.74	1.66	1.48	enough cells to score
16	Cr2	1	0.27	1.51	1.42	enough cells to score
17	Idh1	1		1.37	1.47	fewer than 50 cells per well; well left out of scoring
18	Pcdhga2	1	1.49	1.63	1.43	enough cells to score
19	Gatad2b	1	-0.56	1.53	1.53	enough cells to score
20	Ints14	1		1.53	1.67	fewer than 50 cells per well; well left out of scoring
21	Klhl13	1	-1.4	1.34	1.12	enough cells to score
22	Krt19	1	-0.77	1.38	1.27	enough cells to score
23	Or4k42	1	0.6	1.72	1.5	enough cells to score
24	A530053G22Rik	1	2.36	1.63	1.92	enough cells to score
25	Eif1	1	-1.81 (active)	1.16	1.05	enough cells to score
26	4930563M21Rik	1		1.15	1.33	fewer than 50 cells per well; well left out of scoring
27	Fam234b	1	-0.8	1.45	1.41	enough cells to score
28	Cilk1	1	0.62	1.72	1.45	enough cells to score
29	St8sia1	1	-0.03	1.42	1.25	enough cells to score
30	St8sia1	2	0.91	1.51	1.71	enough cells to score
31	Or5p81	1	1.25	1.67	1.37	enough cells to score
32	Tmem150cos	1	-0.76	1.22	1.41	enough cells to score
33	Foxa1	1	-0.02	1.45	1.35	enough cells to score
34	Ogg1	1	0.47	1.51	1.47	enough cells to score
35	Herc4	1	-0.02	1.57	1.65	enough cells to score
36	Nudt6	1	0.03	1.71	1.55	enough cells to score
37	Dnttip1	1	0.28	1.56	1.37	enough cells to score
38	Mgst2	1	0.37	1.71	1.66	enough cells to score
39	Adprm	1		1.29	1.87	fewer than 50 cells per well; well left out of scoring
40	Chtf18	1	0.44	1.7	1.81	enough cells to score
41	Ube2e2	1		1.44	1.47	fewer than 50 cells per well; well left out of scoring
42	Clic1	1	-0.91	1.49	1.6	enough cells to score
43	Necap1	1	0.06	1.38	1.45	enough cells to score
44	Ints11	1		1.35	1.58	fewer than 50 cells per well; well left out of scoring
45	Bnip2	1	-0.56	1.56	1.5	enough cells to score
46	Ascc2	1	-0.1	1.46	1.33	enough cells to score
47	Or4k6	1	0.05	1.45	1.16	enough cells to score
48	Rassf8	1	-1.31	1.16	1.32	enough cells to score
49	Orc2	1	-0.19	1.59	1.22	enough cells to score
50	Clic6	1	1.31	1.72	2.07	enough cells to score
51	Shox2	1	0.52	1.61	1.64	enough cells to score
52	Hjv	1	-0.28	1.31	1.24	enough cells to score
53	Ap2a1	1	-0.19	1.59	1.65	enough cells to score
54	Raet1a	1		1.33	1.02	fewer than 50 cells per well; well left out of scoring
55	Foxi2	1	-0.34	1.47	1.53	enough cells to score
56	Crocc	1	-0.44	1.66	1.34	enough cells to score
57	Phxr5	1	0.69	1.51	1.34	enough cells to score
58	Ccl8	1	-1.06	1.37	1.24	enough cells to score
59	Kdm3b	1	-0.96	1.41	1.3	enough cells to score
